Measurements taken from PMC6211276, “Computer-aided molecular design of pyrazolotriazines targeting glycogen synthase kinase 3” (Journal of Enzyme Inhibition and Medicinal Chemistry, 2018).

Assay: In vitro parallel artificial membrane permeability assay (PAMPA-BBB)
Conditions: pig, pH 7.4
Protocol: Prediction of the brain penetration was evaluated using a parallel artificial membrane permeability assay (PAMPA). Ten commercial drugs, phosphate buffer saline solution at pH 7.4 (PBS), ethanol, and dodecane were purchased from Sigma Aldrich, Across organics and Fluka. […] Filter PDVF membrane units (diameter 30 mm, pore size 0.45 μm) from Symta were used to filter the samples. A 96-well plate UV, (Thermoscientific, Varioskan Lux multimode microplate reader) was used for the UV measurements. […] Then 100 μL of this compound stock solution was taken, and 1400 μL of ethanol and 3500 μL of PBS pH 7.4 buffer were added to reach 30% of ethanol concentration in the experiment. These solutions were filtered. The acceptor 96-well microplate was filled with 180 μL of PBS:ethanol (70:30). The donor 96-well plate was coated with 4 μL of porcine brain lipid in dodecane (20 mg mL^−1), and after 5 min, 180 μL of each compound solution was added. Then 1−2 mg of every compound to be determined for their ability to pass the brain barrier were dissolved in 1500 μL of ethanol and 3500 μL of PBS pH 7.4 buffer, filtered, and then added to the donor 96-well plate. […] The concentration of compounds and commercial drugs in the acceptor and the donor wells was determined by UV plate reader. Every sample was analysed at three to five wavelengths, in three wells and in three independent runs. […]

In the case of CC(C)NCC(O)COc1ccc(CC(N)=O)cc1 (stereo not shown) [Atenolol, reference compound], the Papp at 4 h is reported as 0.6 ± 0.4 ×10⁻⁶ cm/s.
